The values below come from PMC3050729, “Novel computational analysis of protein binding array data identifies direct targets of Nkx2.2 in the pancreas”.

The exact form of at least one protein or probe is not confirmed. The comparison behind a weaker result is the experiment's own reference, which may not be listed here. Protein sequences can lack the tags named with them. For some assays here: Where cells or extracts were used, other partners may take part. For some assays here: At least one verdict was read from the data and is not stated in words by the source.

The first data set deals with T1, Myc-Nkx2.2 in alphaTC1 nuclear extract (UniProt P42586).
T1 sequence (looked up, limits assumed): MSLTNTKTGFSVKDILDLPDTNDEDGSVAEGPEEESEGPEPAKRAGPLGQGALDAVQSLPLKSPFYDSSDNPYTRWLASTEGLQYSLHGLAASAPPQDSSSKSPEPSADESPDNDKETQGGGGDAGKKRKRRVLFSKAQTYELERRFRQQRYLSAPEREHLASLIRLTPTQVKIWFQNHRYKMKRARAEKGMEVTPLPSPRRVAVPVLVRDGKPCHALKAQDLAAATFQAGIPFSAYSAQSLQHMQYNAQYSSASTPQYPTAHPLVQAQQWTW
As to the kind of experiment: EMSA. To be noted: pH and temperature not given; protein in a lysate after overexpression; protein details: Myc; label: 32P-dCTP Klenow fill-in.
As for “TCGACGCGATTTTTCAAGTGGTTTTCAGTAGC / AGCTGCTACTGAAAACCACTTGAAAAATCGCG [Nkx2.2 AAGT consensus]”, the binding result is reported as “binds”. The same measure, in the same setting: then “TCGACGCGATTTTTCGAGTGGTTTTCAGTAGC / AGCTGCTACTGAAAACCACTCGAAAAATCGCG [Nkx2.2 GAGT]”, with “binds more weakly”.

In the next data set the target is T2, Nkx2.2 (in vitro translated) (UniProt P42586).
T2 sequence (looked up, limits assumed): T1 sequence (looked up, limits assumed)
Briefly: EMSA. To be noted: pH and temperature not given; protein translated in vitro; protein details: Myc (stated in Fig 1C); label: 32P-dCTP Klenow fill-in. A general note: In EMSA bound probe runs differently from free probe, usually more slowly.
On to “ACGAAAAACTGCTAAAGTTCTCTCAAGTGAATTTTGACGTCAAATGAGCCTAG / AGACTAGGCTCATTTGACGTCAAAATTCACTTGAGAGAACTTTAGCAGTTTTT [Gcg -280]”, for which the binding result is given as “binds”.

Take “ACGTGTGGGCGGGTCTTGGGAGTCAAGTGGATGAAGACAGTATTTG / CTGCAAATACTGTCTTCATCCACTTGACTCCCAAGACCCGCCCAC [Nkx2.2 -377]”: the binding result is on record as “binds”. On the same count and under the same terms, as for “AGCCACTTTATGGCGGGAACTGGAAATAAGTGCTGTGGTCCCGCTGACTTCT / TGCAGAAGTCAGCGGGACCACAGCACTTATTTCCAGTTCCCGCCATAAAGTG [Nkx6.2 -1441]”, the entry is “binds”; as for “AGCCCAGAGAACCAAGCTAATAGCCACTTGATTATTTTACTCTAGTCAAATTGTG / TGCCACAATTTGACTAGAGTAAAATAATCAAGTGGCTATTAGCTTGGTTCTCTGG [Tm4sf4 +555]”, “binds”. With “AGCCCTGGCTACTGGAACCTTGGCCACTTGAGCCCCGTCCACCTCCTGAGCCC / CCGGGGCTCAGGAGGTGGACGGGGCTCAAGTGGCCAAGGTTCCAGTAGCCAGG [Irs4 +1495]”, the binding result is listed as “binds”. Same read-out and setting: as for “AGTACACACATATCAATAACCCACTCATCCACATTGTATGGAATAAATTTGTAT / AGAATACAAATTTATTCCATACAATGTGGATGAGTGGGTTATTGATATGTGTGT [Gcg -432]”, the entry is “binds”; as for “AGTCCAAATATCTTAAGGAGATAAACCACTTGAGAGGAGACTTAATTC / TTGAGAATTAAGTCTCCTCTCAAGTGGTTTATCTCCTTAAGATATTTGG [Frzb -2290]”, “binds”. For “AGTGTAAAAAATAAATTAATTTTAAAAAAAACACTTAAACGTGAACACAT / TGTATGTGTTCACGTTTAAGTGTTTTTTTTAAAATTAATTTATTTTTTAC [Iapp -1184]”, the binding result was “binds”. Still for that read-out and setting: then “AGTTATGACCCGAGTGAGAACAAAGTACTCAGAATACGGGACACACCTGT / GCAACAGGTGTGTCCCGTATTCTGAGTACTTTGTTCTCACTCGGGTCATA [Spock3 -1044]”, with “binds”. Still for that read-out and setting: as for “CCGCCTAGGCCCGCGTCCCCGCCCACTTCACTGGGCTCAAGGCAGTGG / TGCCCACTGCCTTGAGCCCAGTGAAGTGGGCGGGGACGCGGGCCTAGG [Irs4 -111]”, the entry is “binds”; as for “CGCGTCGCTCTCGAGTCCACACACTTGAAAAGAGCCGTTTTAACAAATT / ATGCAATTTGTTAAAACGGCTCTTTTCAAGTGTGTGGACTCGAGAGCGAC [Nkx2.2 -188]”, “binds”. On the same count and under the same terms, as for “CGCTCCTCCCAGCTGCCAGCCAAGAAGACACTTGACTCCTTGATCGCTGGT / TGAACCAGCGATCAAGGAGTCAAGTGTCTTCTTGGCTGGCAGCTGGGAGGA [Ngn3 -506]”, the entry is “binds”.

In the case of “CGGCTGTTAGGTCTTGCCTGCCCCACTTAAGCCCCTGAGACCTGAGGTCT / TGAAGACCTCAGGTCTCAGGGGCTTAAGTGGGGCAGGCAAGACCTAACAGC [Tm4sf4 +912]”, the binding result is recorded as “binds”. On the same count and under the same terms, as for “CTGAAGGCCTGCCGTAGTTGAGAAGTGAAGTGTCTCCAAGGTTCAAAGAACT / CAGAGTTCTTTGAACCTTGGAGACACTTCACTTCTCAACTACGGCAGGCCTT [Tm4sf4 -5]”, the entry is “binds”; as for “GAACAAACACAGGGTGACTCATTGAAGTGTGATGCATGGCTAAAAGCAGA / AGTTCTGCTTTTAGCCATGCATCACACTTCAATGAGTCACCCTGTGTTTG [Chgb -1529]”, “binds”; as for “GCCATTAGTGCCAATGACCCAGCACTCGAGGGTAGGGGGAGCACAGC / ACTGGCTGTGCTCCCCCTACCCTCGAGTGCTGGGTCATTGGCACTAATG [Tm4sf4 -1723]”, “binds”. Consider “GCTGCAAGTTTGCTACATACCACTTGTTCGCCCCACTTAACATCAGGAGTGGGCTT / GCTAAGCCCACTCCTGATGTTAAGTGGGGCGAACAAGTGGTATGTAGCAAACTTGC [Nkx2.2 -1502 (-1503 in Fig 4 legend)]”, for which the binding result is “binds”. As to “GTCAATATTTTGGTTGAAGCTTAAGGATGAGTACTAGAAATGACAAG / TGACTTGTCATTTCTAGTACTCATCCTTAAGCTTCAACCAAAATATT [Nkx2.2 -716]”, the binding result was “binds”. Same read-out and setting: then “GTTAAGCTGGTATGGCTAGTTAAGTGGTTATAGCTGACATATAATGTCT / TGAAGACATTATATGTCAGCTATAACCACTTAACTAGCCATACCAGCTT [Iapp -1955]”, with “binds”; and “TCGACGCGATTTTTCGAGTGGTTTTCAGTAGC / AGCTGCTACTGAAAACCACTCGAAAAATCGCG [Nkx2.2 GAGT]”, with “binds more weakly”. On the same count and under the same terms, as for “TGAGGTTAAAAGAGAGAGAGAATTTTGAAGTGTATCCTTTGGC / AGGCCAAAGGATACACTTCAAAATTCTCTCTCTCTTTTAACC [Chgb -217]”, the entry is “binds”; as for “TGCTCATGTGGGCAGAATTAAGTGGAATTAGCTAACAAATTATATAAAAT / TGAATTTTATATAATTTGTTAGCTAATTCCACTTAATTCTGCCCACATGA [Pdx1 -5877]”, “binds”. Same read-out and setting: then “TGTCCTCAGGCCGCTACATAAAGGCACTCAAGAGACTGGAGGCCCCAGGGAGTTTGGAGG / TGACCTCCAAACTCCCTGGGGCCTCCAGTCTCTTGAGTGCCTTTATGTAGCGGCCTGAGG [Iapp -1355]”, with “binds”; and “TGTCCTCCTCATCCTCTCTGTGGCACTGAACCACTTGAGAGCTACACCTG / TGACAGGTGTAGCTCTCAAGTGGTTCAGTGCCACAGAGAGGATGAGGAGG [Iapp +479]”, with “binds”.

The data set is the same for the next values; noted with them: positive control; pH and temperature not given; protein translated in vitro; protein details: Myc (stated in Fig 1C); label: 32P-dCTP Klenow fill-in.
“TGTAACCAGGAGGCAGCCCCTCCAGCAAGCACTTCAGTGTGCTCAGTGGG / AACAGCCCCACTGAGCACACTGAAGTGCTTGCTGGAGGGGCTGCCTCCTGG [Mafa -7762]”: the binding result was “binds”.

Another data set deals with T3, Nkx2.2, endogenous in betaTC6 nuclear extract (UniProt P42586).
T3 sequence (looked up, limits assumed): T1 sequence (looked up, limits assumed)
As to the kind of experiment: EMSA. Particulars: Nkx2.2 antibody, possibly stabilized by interacting factors; pH and temperature not given; protein in an extract; label: 32P-dCTP Klenow fill-in.
Consider “TGCTTTCTGCAGACCTAGCACCAGGCAAGTGTTTGGAAACTGCAGCT / CTGAAGCTGCAGTTTCCAAACACTTGCCTGGTGCTAGGTCTGCAGAA [Ins2 -144]”, for which the binding result is recorded as “binds more weakly”.

Still in this data set, the particulars now being: shift inhibited by Nkx2.2 antibody; pH and temperature not given; protein in an extract; label: 32P-dCTP Klenow fill-in.
“AAGCAGAACTCAGGCAGCAAGGTACTTAATGGTCCCTCCTTCTCCATC / AGAGATGGAGAAGGAGGGACCATTAAGTACCTTGCTGCCTGAGTTCT [Ins2 -477 (Ins -471 in probe list)]”: the binding result is “binds”.
